This note sets out measurements from article doi:10.1101/2020.05.04.064501.

The target in experiment [1] is T1, ASY1^1-300-BD (ASY1 HORMA domain) (Arabidopsis thaliana) (UniProt F4HRV8).
T1 sequence: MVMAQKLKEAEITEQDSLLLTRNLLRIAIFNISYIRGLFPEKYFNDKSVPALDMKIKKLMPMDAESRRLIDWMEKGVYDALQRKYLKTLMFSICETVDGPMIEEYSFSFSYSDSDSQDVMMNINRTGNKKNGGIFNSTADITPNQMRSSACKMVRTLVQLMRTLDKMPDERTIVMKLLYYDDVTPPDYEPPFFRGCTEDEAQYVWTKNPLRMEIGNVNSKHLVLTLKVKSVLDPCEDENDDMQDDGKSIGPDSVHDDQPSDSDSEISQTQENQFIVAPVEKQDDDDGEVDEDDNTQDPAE
As to the kind of experiment: two-hybrid.

The target of experiment [2] is T2, ASY1^1-300/Δ10-BD (Arabidopsis thaliana) (UniProt F4HRV8).
T2 sequence: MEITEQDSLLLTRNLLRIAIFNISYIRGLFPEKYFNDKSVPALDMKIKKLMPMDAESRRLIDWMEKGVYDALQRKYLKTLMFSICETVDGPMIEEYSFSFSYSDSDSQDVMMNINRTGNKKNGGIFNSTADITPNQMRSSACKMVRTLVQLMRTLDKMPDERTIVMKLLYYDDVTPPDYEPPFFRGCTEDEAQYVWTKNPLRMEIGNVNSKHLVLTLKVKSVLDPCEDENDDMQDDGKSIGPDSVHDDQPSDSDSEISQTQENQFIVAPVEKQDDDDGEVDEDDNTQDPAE
As to the kind of experiment: two-hybrid.

Results are given in words; binding and its absence hold for the method and conditions named. Some binding calls cover weakened binding; strength is not graded here. Where a sequence is shown, tags or fusion partners need not be part of it.

B1: ASY3^1-200-AD (domain or fragment, UniProt Q0WR66 1-200)
chain: MSDYRSFGSNYHPSSQSRKISIGVMADSQPKRNLVPDKDDGDVIARVEKLKSATVTELQANKKEKSDLAAKQRNSAQVTGHVTSPWRSPRSSHRKLGTLESVLCKQTSSLSGSKGLNKGLNGAHQTPARESFQNCPISSPQHSLGELNGGRNDRVMDRSPERMEEPPSAVLQQKVASQREKMDKPGKETNGTTDVLRSKL
With B1, in experiment [1], the binding result is reported as “binds”.

B2: ASY3-FL-AD (protein, UniProt Q0WR66 1-793)
chain: MSDYRSFGSNYHPSSQSRKISIGVMADSQPKRNLVPDKDDGDVIARVEKLKSATVTELQANKKEKSDLAAKQRNSAQVTGHVTSPWRSPRSSHRKLGTLESVLCKQTSSLSGSKGLNKGLNGAHQTPARESFQNCPISSPQHSLGELNGGRNDRVMDRSPERMEEPPSAVLQQKVASQREKMDKPGKETNGTTDVLRSKLWEILGKASPANNEDVNSETPEVEKTNFKLSQDKGSNDDPLIKPRHNSDSIETDSESPENATRRPVTRSLLQRRVGAKGVQKKTKAGANLGRKCTEQVNSVFSFEEGLRGKIGTAVNSSVMPKKQRGRRKNTVVKCRKAHSRKKDEADWSRKEASKSNTPPRSESTETGKRSSSSDKKGSSHDLHPQSKARKQKPDISTREGDFHPSPEAEAAALPEMSQGLSKNGDKHERPSNIFREKSVEPENEFQSPTFGYKAPISSPSPCCSPEASPLQPRNISPTLDETETPIFSFGTKKTSQGTTGQASDTEKRLPDFLEKKRDYSFRRESSPEPNEDLVLSDPSSDERDSDGSREDSPVLGHNISPEERETANWTNERSMLGPSSVKRNSNLKGIGRVVLSPPSPLSKGIDKTDSFQHCSEMDEDEDEGLGRAVALFAMALQNFERKLKSAAEKKSSEIIASVSEEIHLELENIKSHIITEAGKTSNLAKTKRKHAETRLQEQEEKMRMIHEKFKDDVSHHLEDFKSTIEELEANQSELKGSIKKQRTSHQKLIAHFEGGIETKLDDATKRIDSVNKSARGKMLQLKMIVAECLRDD
Consider B2, for which the binding result in experiment [1] is on record as “binds”.
In the case of DRRGRKTSMVREPILQYSKRQKSQAN (domain or fragment, UniProt F4HRV8 571-596) [ASY1^571-596-AD (closure motif of ASY1)], the binding entry in experiment [2] and in experiment [1] was “binds” in each case.
